# Laboratory results: PubChem BioAssay AID1259308 (NCATS, 2017)
# Aim: 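Genes whose loss raises luciferase production in HEK293 cells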 (primary screen)
# Cells: human HEK293 embryonic kidney cells stably expressing firefly luciferase (HEK-CMV-Luc2-Hygro)
# Reagents: single siRNA against human genes, 0.8 pmol siRNA per well
# Time to read-out: 72 h
# Detection: 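Luciferase light (ONE-Glo) measured on one replicate plate set and viability (CellTiter-Glo) on the other, scaled to a negative control siRNA, with robust z-scores and luciferase per cell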
# Direction: total luciferase, z-score and total luciferase, % of control: higher = more reporter protein produced
# Call rule: 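An siRNA counts as active if its total luciferase robust z-score exceeds 3; genes with two or more such siRNAs out of three were retested with fresh siRNAs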
# Calls: active = raised luciferase; inactive = no rise
# This is a random part of about 59,000 deposited reagents. In the full data, about 1,510 (2.6%) got an active call. 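Calls use total luciferase alone and ignore viability, so some active siRNAs may act by altering cell number.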 The numbers tell different reagents against one gene apart. Further read-outs or replicates are left out here.
target,reagent no.,"total luciferase, z-score","total luciferase, % of control",Outcome
FOXJ2 (forkhead box J2),1,0.992,102,inactive
FOXJ2 (forkhead box J2),2,3.17,145,active
FOXJ2 (forkhead box J2),3,-0.0387,81.1,inactive
PPIAP19 (peptidylprolyl isomerase A pseudogene 19),1,-0.372,74.5,inactive
PPIAP19 (peptidylprolyl isomerase A pseudogene 19),2,-0.0554,80.8,inactive
PPIAP19 (peptidylprolyl isomerase A pseudogene 19),3,2.58,133,inactive
TMC2 (transmembrane channel like 2),1,1.85,119,inactive
TMC2 (transmembrane channel like 2),2,0.102,83.9,inactive
TMC2 (transmembrane channel like 2),3,0.886,99.5,inactive
KIF13B (kinesin family member 13B),1,0.204,85.9,inactive
KIF13B (kinesin family member 13B),2,0.0889,83.7,inactive
KIF13B (kinesin family member 13B),3,-0.54,71.1,inactive
RTP4 (receptor transporter protein 4),1,-0.236,77.2,inactive
RTP4 (receptor transporter protein 4),2,-0.773,66.5,inactive
RTP4 (receptor transporter protein 4),3,1.73,116,inactive
DNAJC28 (DnaJ heat shock protein family (Hsp40) member C28),1,-1.11,59.8,inactive
DNAJC28 (DnaJ heat shock protein family (Hsp40) member C28),2,-1.68,48.5,inactive
DNAJC28 (DnaJ heat shock protein family (Hsp40) member C28),3,-0.842,65.1,inactive
NUP210 (nucleoporin 210),1,-0.921,63.6,inactive
NUP210 (nucleoporin 210),2,0.0532,82.9,inactive
NUP210 (nucleoporin 210),3,-0.189,78.1,inactive
TESK2 (testis associated actin remodelling kinase 2),1,-0.664,68.7,inactive
TESK2 (testis associated actin remodelling kinase 2),2,1.39,109,inactive
TESK2 (testis associated actin remodelling kinase 2),3,-0.587,70.2,inactive
NCKIPSD (NCK interacting protein with SH3 domain),1,-0.248,77,inactive
NCKIPSD (NCK interacting protein with SH3 domain),2,1.09,104,inactive
NCKIPSD (NCK interacting protein with SH3 domain),3,-0.797,66,inactive
CTC1 (CST telomere replication complex component 1),1,-0.181,78.3,inactive
CTC1 (CST telomere replication complex component 1),2,2.82,138,inactive
CTC1 (CST telomere replication complex component 1),3,-0.532,71.3,inactive
TSPAN3 (tetraspanin 3),1,0.952,101,inactive
TSPAN3 (tetraspanin 3),2,-0.00775,81.7,inactive
TSPAN3 (tetraspanin 3),3,1.3,108,inactive
FBXW11 (F-box and WD repeat domain containing 11),1,-1.84,45.3,inactive
FBXW11 (F-box and WD repeat domain containing 11),2,-0.476,72.4,inactive
FBXW11 (F-box and WD repeat domain containing 11),3,0.657,95,inactive
CASP6 (caspase 6),1,-0.231,77.3,inactive
CASP6 (caspase 6),2,1.59,113,inactive
CASP6 (caspase 6),3,0.0372,82.6,inactive
LRRN1 (leucine rich repeat neuronal 1),1,-0.963,62.7,inactive
LRRN1 (leucine rich repeat neuronal 1),2,-0.224,77.4,inactive
LRRN1 (leucine rich repeat neuronal 1),3,0.162,85.1,inactive
CHRND (cholinergic receptor nicotinic delta subunit),1,4.14,164,active
CHRND (cholinergic receptor nicotinic delta subunit),2,1.17,105,inactive
CHRND (cholinergic receptor nicotinic delta subunit),3,-0.707,67.8,inactive
AMBP (alpha-1-microglobulin/bikunin precursor),1,-0.26,76.7,inactive
AMBP (alpha-1-microglobulin/bikunin precursor),2,-2.62,29.7,inactive
AMBP (alpha-1-microglobulin/bikunin precursor),3,-1.12,59.7,inactive
ZNF576 (zinc finger protein 576),1,0.165,85.2,inactive
ZNF576 (zinc finger protein 576),2,-0.0489,80.9,inactive
ZNF576 (zinc finger protein 576),3,-0.0741,80.4,inactive
SLC26A10P,1,1.96,121,inactive
SLC26A10P,2,2.31,128,inactive
SLC26A10P,3,0.756,96.9,inactive
KBTBD12 (kelch repeat and BTB domain containing 12),1,-0.249,76.9,inactive
KBTBD12 (kelch repeat and BTB domain containing 12),2,-0.0211,81.5,inactive
KBTBD12 (kelch repeat and BTB domain containing 12),3,-1.12,59.6,inactive
